## Library screening results

Amino acid sequences for entries named in this document (tags omitted).
UniProt E9BF75, entry or part of it: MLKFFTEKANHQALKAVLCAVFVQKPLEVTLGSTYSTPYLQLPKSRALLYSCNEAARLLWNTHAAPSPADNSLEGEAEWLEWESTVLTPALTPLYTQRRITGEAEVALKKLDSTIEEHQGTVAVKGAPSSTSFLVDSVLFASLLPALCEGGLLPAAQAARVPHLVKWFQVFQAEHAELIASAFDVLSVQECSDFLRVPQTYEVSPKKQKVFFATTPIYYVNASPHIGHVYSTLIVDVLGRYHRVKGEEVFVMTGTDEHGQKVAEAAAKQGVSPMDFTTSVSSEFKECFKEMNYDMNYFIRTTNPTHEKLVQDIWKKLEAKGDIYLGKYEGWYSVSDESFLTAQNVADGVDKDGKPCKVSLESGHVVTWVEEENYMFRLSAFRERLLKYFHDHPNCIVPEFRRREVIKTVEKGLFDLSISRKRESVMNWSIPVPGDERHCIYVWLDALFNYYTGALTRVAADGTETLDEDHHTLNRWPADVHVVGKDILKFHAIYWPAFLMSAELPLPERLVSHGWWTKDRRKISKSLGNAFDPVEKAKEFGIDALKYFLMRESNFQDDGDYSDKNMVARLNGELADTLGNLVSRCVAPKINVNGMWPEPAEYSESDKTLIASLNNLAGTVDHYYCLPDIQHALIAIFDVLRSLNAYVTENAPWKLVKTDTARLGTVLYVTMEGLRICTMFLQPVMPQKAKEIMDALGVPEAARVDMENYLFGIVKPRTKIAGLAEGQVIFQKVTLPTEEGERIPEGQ

Measurements from “University of Dundee, Small-Polar-MMV Screening Library” (2021), ChEMBL document CHEMBL3988442.

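Primary screen of methionyl-tRNA synthetase; the read-out is not stated. Target: Methionyl-tRNA synthetase (putative), Leishmania donovani (UniProt E9BF75). The test concentration is not given. The values are filed as inhibition. Size under these conditions: about 68,000 compounds, about 24 of them at 50% or above in at least one test.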

Results are percentages, as filed. How 0% and 100% were set is not recorded. Most values in the screen are low, and negative values occur. Compounds were drawn at random from those tested, without regard to their results.

Compound	Inhibition
O=C(CCCn1cnc2ccccc2c1=O)Nc1nc[nH]n1	7.527
CC(C)CC(=O)N1CC[C@@H]2CN(Cc3cccnc3)S(=O)(=O)[C@@H]2CC1	9.819
Cc1ccc2oc(C(=O)N3CCC(C(=O)N4CCCC4)CC3)cc2n1	6.135
O=C(Nc1ccnn1Cc1ccc(Cl)cc1)C1CCS(=O)(=O)C1 (stereo not given)	6.479
CC(C(=O)O)N1CCc2onc(-c3ccc(F)c(F)c3)c2C1 (stereo not given)	9.317
CN(Cc1cn2c(n1)CN(C(=O)c1cccnc1)CC2)Cc1ccco1	12.77
Cc1ccc(CN2CCC3(CC2)CC(c2cccnc2)CO3)s1 (stereo not given)	20
CCCc1cc(=O)[nH]c2nnc(SCC(N)=O)n12	-1.049
CC(C)(C)c1coc([C@@H]2COCCN2Cc2ccccc2)n1	15.79
COCCCC(=O)Nc1cccnc1N1CCCCC1	8.982
CN(Cc1ccccn1)C(=O)[C@]12COC[C@H]1CN(Cc1cnn(C)c1)C2	15.48
CCC(C)(C)n1nnnc1C(c1cccs1)N1CCc2ccccc21 (stereo not given)	13.52
CS(=O)(=O)Cc1ccc(Cl)c(NCc2noc(C3CC3)n2)c1	14.29
COc1cccc(N2CCN(C(=O)C(O)CC(C)C)CC2=O)c1 (stereo not given)	1.567
Cc1csc2ncc(-c3ccnc(N4CCCN(C)CC4)n3)c(=O)n12	5.583
CC(O)CN1CCN(C(=O)c2cccn2Cc2ccncc2)CC1 (stereo not given)	5.164
Cc1ccc2c(c1)C1(CCNCC1)CN2C(=O)C(C)C	11.75
Cc1ccccc1SCC(=O)N[C@H]1CC[C@H](n2cnnc2)CC1	6.969
CCN(CC)C(=O)c1ccc(Cl)c(NC(=O)c2cnc(C)cn2)c1	12.79
Cc1nc(Nc2ccccn2)cc(C2CCCN2Cc2ncc[nH]2)n1 (stereo not given)	6.78
Cc1noc([C@@H]2C[C@H]3OCC[C@H]3N(S(=O)(=O)N(C)C)C2)n1	14.11
O=C(Cc1cccc(F)c1)N1CCn2cc(Cn3cccn3)nc2C1	6.468
CCc1oc(C(=O)NCCSc2ncn[nH]2)cc1CN1CCCC1	20.43
Cc1ccc([C@]2(O)CC[C@H]3CN(Cc4ccccc4F)C[C@H]32)nc1	6.215
CCCNC(=O)Cn1c(-n2nc(C)cc2C)nc(CCC)cc1=O	9.014
Cc1cc(CN2CCc3nc(C)n(C)c(=O)c3CC2)[nH]n1	13.53
Cc1ccc(CN2CCOC3(COCCN(Cc4ccncc4)C3)C2)o1 (stereo not given)	15.93
CN1CCN(S(=O)(=O)c2cccc(C#N)c2)c2ccc(F)cc21	-0.7519
CC(=O)N1[C@H](Cn2cncn2)C[C@@H]2CN(C(=O)NC3CC3)CC[C@@H]21	8.795
COCCNC(=O)c1cc(S(=O)(=O)N2CCCCC2)cs1	9.63
CC(C)=CCCC1(C)C=Cc2c(cc(C)n(CCC(=O)O)c2=O)O1 (stereo not given)	9.206
COC[C@@]12CCO[C@@H]1CCN(Cc1ccccc1OC)C2	7.843
O=C(NCCCc1ccc(O)cc1)C1(O)Cc2ccccc2C1	5.615
Cc1cccc(CS(=O)(=O)CC(=O)NCCCOC(C)C)c1	4.453
N#Cc1cc(S(N)(=O)=O)ccc1NC1CCc2ccc(F)cc21 (stereo not given)	13.69
Cc1cc(C)c(C)c(OCCCNC(=O)NC(C)c2nncn2C)c1 (stereo not given)	-0.3436
CC(C)(C)OC(=O)N1CCC(NC2CC2)CC1	19.84
CSCc1noc(CN2CCC3(CC2)CC(=O)N(CC(C)C)C3)n1	10.56
O=C1CC[C@@H]2[C@@H](CCN2Cc2ccncc2)N1c1ccccc1	7.95
CCS(=O)(=O)N1C[C@@H](OCc2cccnc2)[C@H]2OCCC[C@H]21	13.3
O[C@H]1CN(Cc2c[nH]nc2-c2ccccc2)CC[C@@]12CCCO2	3.797
COc1cccc2c1OCC(CNC(=O)CNC(N)=O)C2 (stereo not given)	14.5
COCCCN1CCN(c2ncnc3nc(C)cc(C)c23)CC1	3.922
CCCOC(=O)NCCC1CN(c2cnn(C)c(=O)c2)CCO1 (stereo not given)	10.6
Cc1nc(CC(=O)NS(=O)(=O)c2cccc3cnccc23)cs1	18.56
CCn1cc2c(n1)CN(Cc1sccc1C)CC2COCC1CC1 (stereo not given)	11.75
Cc1nc2c(c(N3CCCOCC3)n1)CCN(C(=O)N1CCCC1)CC2	10.1
CN1CCN(Cc2noc(-c3cc(-c4ccccc4F)n[nH]3)n2)CC1	11.29
Cc1nc(N2CCCC2)nc2c1CCN(C(=O)NC(C)C)CC2	0.2882
Cc1nc2[nH]cnc(Nc3cc(C)n(C)n3)c-2n1	19.26
CCN(CC)C(=O)CCn1ncc2c(Cl)cccc21	18.67
O=C(CNc1cc2c(cc1Cl)OCCCO2)NCc1ccc(F)cc1	4.869
COc1cc(OC)cc(N2CCC(NCc3cccs3)C2=O)c1 (stereo not given)	14.38
O=C(NCc1cccs1)[C@H]1CC[C@@H]2[C@@H](CCN2C2CCC2)O1	15.85
CCCn1nnnc1COC(=O)C1Cc2cc(Cl)ccc2O1 (stereo not given)	9.756
CC(C)c1nc(CN(C)Cc2cnc(N3CCOCC3)nc2)no1	5.16
O=S(=O)(NC1=NCN(CCc2cccs2)CN1)c1ccc(F)cc1	12.86
COc1ccc(C2CCCN2Cc2ccc(S(=O)(=O)N(C)C)o2)cc1 (stereo not given)	14.8
CCCc1nnc(NCCc2noc(C3CCCC3)n2)o1	1.613
O=c1c2cccnc2cnn1CC(O)c1ccc(Br)cc1 (stereo not given)	6.015
Cc1ccc(NC2CCN(C(=O)c3cncnc3C)CC2)nn1	16.84
CCc1cccc(NC(=O)NC2CCc3nc(C)nn3C2)c1 (stereo not given)	13.24
COc1ccc(-c2nc(C#N)c(N(C)C)o2)cc1OC	14.56

3 of the entries, repeated:

O=C(Nc1ccnn1Cc1ccc(Cl)cc1)C1CCS(=O)(=O)C1 (stereo not given) read 6.479%.
O=C(Cc1cccc(F)c1)N1CCn2cc(Cn3cccn3)nc2C1 read 6.468%.
CCc1oc(C(=O)NCCSc2ncn[nH]2)cc1CN1CCCC1 read 20.43%.